Test results reported in publication PMC10071743.
No constants are given. Whether binding was seen depends on the method and setting. Binding seen in cells or lysates may run through a third protein. Some results given as binding are weak or reduced against the parent protein; the word gives no strength. Where a sequence is shown, tags or fusion partners need not be part of it.

The chains behind the UniProt entries cited, without tags or fusion partners.
UniProt P10275: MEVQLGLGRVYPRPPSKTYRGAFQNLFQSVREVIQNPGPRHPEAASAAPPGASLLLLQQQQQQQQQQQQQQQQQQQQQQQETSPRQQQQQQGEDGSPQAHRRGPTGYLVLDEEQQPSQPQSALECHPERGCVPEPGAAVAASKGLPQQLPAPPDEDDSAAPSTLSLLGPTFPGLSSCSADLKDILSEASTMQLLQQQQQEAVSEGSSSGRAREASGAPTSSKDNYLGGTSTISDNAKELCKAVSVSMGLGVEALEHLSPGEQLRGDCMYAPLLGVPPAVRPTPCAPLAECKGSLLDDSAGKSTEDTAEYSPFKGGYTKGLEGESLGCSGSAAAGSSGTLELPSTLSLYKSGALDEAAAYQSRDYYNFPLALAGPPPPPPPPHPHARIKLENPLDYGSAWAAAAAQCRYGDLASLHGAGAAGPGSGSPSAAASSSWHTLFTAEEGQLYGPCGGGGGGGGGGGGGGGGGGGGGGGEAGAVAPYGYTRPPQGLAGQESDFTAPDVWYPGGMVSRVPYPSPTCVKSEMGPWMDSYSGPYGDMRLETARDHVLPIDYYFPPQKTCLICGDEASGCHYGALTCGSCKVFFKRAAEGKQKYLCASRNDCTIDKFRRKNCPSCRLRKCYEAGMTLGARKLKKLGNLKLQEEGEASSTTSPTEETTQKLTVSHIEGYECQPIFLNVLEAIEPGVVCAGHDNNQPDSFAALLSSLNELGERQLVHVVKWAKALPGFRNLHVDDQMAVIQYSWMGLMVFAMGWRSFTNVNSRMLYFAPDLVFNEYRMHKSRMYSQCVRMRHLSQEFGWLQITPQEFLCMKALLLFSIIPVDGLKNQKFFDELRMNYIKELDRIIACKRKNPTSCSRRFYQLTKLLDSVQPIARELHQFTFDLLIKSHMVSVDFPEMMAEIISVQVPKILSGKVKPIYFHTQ

Biological target: T1, Flag-USP3 (UniProt Q9Y6I4)
T1 sequence: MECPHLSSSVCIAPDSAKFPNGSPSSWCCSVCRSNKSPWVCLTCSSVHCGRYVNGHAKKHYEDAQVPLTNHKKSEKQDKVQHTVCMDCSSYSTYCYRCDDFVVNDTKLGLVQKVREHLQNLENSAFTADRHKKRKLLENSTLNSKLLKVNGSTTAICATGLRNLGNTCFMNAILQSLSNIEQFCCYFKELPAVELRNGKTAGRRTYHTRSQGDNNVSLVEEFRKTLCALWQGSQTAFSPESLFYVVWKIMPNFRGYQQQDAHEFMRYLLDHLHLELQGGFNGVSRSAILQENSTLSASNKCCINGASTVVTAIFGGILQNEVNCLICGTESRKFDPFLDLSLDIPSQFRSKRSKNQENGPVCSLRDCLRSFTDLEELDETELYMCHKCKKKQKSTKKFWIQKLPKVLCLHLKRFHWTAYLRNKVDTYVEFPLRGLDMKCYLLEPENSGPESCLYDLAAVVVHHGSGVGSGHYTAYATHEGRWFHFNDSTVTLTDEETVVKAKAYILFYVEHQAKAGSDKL
Assay: co-IP; Flag-USP3 transfected into LoVo-OxR cells overexpressing the lncRNA AC092894.1 and into control vector cells; precipitating antibody and buffer not stated

With “androgen receptor (from UniProt P10275 1-920)” the binding was “binds”.
